The values below come from US20250114345A1, “COMPOUNDS AND COMPOSITIONS AS CBP/P300 DEGRADERS AND USES THEREOF” (Oncopia Therapeutics, Inc. d/b/a/ SK Life Science Labs, priority 2023, published 2025).

Chains of the proteins cited; added tags and fusions are not shown.
UniProt Q09472, whole entry: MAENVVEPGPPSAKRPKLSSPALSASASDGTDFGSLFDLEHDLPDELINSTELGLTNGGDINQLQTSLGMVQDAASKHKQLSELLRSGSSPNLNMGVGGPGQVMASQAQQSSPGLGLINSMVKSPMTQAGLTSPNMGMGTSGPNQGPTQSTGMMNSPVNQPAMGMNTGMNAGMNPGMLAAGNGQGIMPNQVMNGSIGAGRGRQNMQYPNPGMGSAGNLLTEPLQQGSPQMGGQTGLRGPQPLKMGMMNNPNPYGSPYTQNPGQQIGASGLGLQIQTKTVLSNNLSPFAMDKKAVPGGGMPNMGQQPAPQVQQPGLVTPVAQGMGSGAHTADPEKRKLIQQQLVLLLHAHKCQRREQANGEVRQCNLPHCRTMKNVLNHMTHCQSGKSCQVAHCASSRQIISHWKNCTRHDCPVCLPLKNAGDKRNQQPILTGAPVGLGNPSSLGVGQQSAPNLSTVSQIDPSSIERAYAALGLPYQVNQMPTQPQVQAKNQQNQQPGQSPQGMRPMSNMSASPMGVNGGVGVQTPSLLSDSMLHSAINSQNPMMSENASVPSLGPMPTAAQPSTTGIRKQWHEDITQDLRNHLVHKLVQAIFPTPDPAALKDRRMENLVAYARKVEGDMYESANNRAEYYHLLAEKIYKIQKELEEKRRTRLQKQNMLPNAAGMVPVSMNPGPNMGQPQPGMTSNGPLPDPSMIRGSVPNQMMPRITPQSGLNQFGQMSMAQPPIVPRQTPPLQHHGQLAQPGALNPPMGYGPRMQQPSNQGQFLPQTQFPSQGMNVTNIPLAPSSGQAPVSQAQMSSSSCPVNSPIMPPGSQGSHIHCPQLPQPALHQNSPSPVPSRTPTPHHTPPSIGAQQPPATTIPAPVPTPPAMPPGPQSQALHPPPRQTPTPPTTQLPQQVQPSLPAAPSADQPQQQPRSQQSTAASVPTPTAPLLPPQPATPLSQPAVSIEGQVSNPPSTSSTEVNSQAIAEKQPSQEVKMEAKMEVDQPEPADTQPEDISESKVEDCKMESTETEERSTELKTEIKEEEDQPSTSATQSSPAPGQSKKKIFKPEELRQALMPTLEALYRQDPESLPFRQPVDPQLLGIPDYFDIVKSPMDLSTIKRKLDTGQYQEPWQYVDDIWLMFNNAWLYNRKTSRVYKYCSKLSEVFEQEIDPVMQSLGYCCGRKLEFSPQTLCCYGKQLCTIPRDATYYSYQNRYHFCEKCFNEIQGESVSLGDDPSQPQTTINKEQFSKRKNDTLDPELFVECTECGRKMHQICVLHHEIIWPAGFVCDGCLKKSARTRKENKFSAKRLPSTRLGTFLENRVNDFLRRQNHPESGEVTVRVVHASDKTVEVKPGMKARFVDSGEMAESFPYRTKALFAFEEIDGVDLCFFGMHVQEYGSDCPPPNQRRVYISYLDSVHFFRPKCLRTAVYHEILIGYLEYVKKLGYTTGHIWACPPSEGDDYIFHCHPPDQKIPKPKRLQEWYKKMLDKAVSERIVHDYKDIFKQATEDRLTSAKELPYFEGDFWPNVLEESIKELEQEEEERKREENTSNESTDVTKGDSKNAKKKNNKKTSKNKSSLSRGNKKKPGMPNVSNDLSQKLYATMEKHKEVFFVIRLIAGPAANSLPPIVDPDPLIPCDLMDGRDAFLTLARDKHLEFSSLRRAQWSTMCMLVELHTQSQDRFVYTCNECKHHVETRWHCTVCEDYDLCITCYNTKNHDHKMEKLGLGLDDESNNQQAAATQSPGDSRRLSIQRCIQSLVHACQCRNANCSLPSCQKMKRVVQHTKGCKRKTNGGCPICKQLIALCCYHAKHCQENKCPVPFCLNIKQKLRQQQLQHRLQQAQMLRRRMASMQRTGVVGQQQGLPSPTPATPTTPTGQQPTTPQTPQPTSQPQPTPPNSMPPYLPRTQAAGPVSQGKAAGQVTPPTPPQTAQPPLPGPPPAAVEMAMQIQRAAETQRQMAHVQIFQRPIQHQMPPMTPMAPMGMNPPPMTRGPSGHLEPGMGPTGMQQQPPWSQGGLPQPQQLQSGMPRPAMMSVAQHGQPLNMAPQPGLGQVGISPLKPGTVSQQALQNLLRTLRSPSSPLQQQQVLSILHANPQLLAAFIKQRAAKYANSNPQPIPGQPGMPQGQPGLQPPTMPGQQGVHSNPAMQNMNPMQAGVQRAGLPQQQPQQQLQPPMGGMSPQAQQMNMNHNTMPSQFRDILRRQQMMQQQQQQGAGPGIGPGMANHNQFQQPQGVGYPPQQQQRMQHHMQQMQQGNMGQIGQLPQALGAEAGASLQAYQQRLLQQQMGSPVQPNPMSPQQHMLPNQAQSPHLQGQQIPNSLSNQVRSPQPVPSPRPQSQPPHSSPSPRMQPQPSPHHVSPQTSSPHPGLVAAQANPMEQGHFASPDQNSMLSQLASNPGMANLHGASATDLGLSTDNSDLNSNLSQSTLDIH

This assay concerns the target p300 (Homo sapiens, UniProt Q09472). Nature of the assay: P300 degradation, HiBit technology in A549 P300 HiBit cells (2 h). To be noted: for P300 A549 2 h HiBit DMax (%): 2 hrs post treatment; for DC50: read-out: P300 A549 2 h HiBit DC50, 2 hrs post treatment. As to the method: p300 and CBP degradation potency and Dmax were determined using in cell western (ICW) assay technology in H1299 cells or HiBit technology in A549 HiBit cells.
A549 P300 HiBit and A549 CBP HiBit cells were plated in separate 384-well, TC treated, white-opaque, flat-bottomed microplate. Cells were plated at a cell density of 0.2×10^4 cells per well in assay media comprised of F-12K, 10% heat inactivated FBS, and 1% penicillin/streptomycin. Assay microplates containing HiBit cells were placed in a 37° C., 5% CO2, tissue culture incubator and left to equilibrate overnight. The next day cells were treated with serial dilutions of test compound made up of 10 mM stock solutions in DMSO. 384-Well plates containing treated cells were then placed back into a 37° C., 5% CO2, tissue culture incubator. Assay microplates containing A549 P300 HiBit cells were incubated for 2 hrs post treatment before P300 destruction was assessed, while microplates containing A549 CBP HiBit cells were incubated for 24 hrs post treatment before CBP destruction was determined. On the day of each assay time point, microplates were removed from the tissue culture incubator and prepared HiBit Lytic detection buffer (Promega, cat #N3O40) was added to each plate. Plates were covered with aluminum foil and incubated for ten minutes at room temperature on an orbital shaker. After incubation, luminescent signal of each plate was measured using the Envision instrument (Perkin Elmer).
(HiBiT is a short tag that completes a luciferase, so light tracks the accessible tagged protein.)

The structures given here were assigned with low confidence; some may be wrong.

For `Cc1cc(-c2ncc3c(n2)OCCN3c2cnc3c(c2)n(C)c(=O)n3C)cnc1C(=O)NCC#Cc1cc2c(C3CCC(=O)NC3=O)cccc2o1` (stereo not shown), the “P300 A549 2 h HiBit DMax (%)” value was “B (“B”: 60-79%)” and the half-maximal degradation concentration (DC50) (usually the concentration giving 50% degradation) was 10 to 99 nM.

With `Cc1cc2c(N3CCCc4nc(-c5ccc(C(=O)NCC#Cc6ccc7occ(C8CCC(=O)NC8=O)c7c6)nc5)ncc43)nc(N3CCN(S(C)(=O)=O)CC3)cc2n(C)c1=O` (stereo not shown), the “P300 A549 2 h HiBit DMax (%)” value was “B (“B”: 60-79%)” and the DC50 lay in the range of 1 to 9.9 nM.
